Measured data: PubChem BioAssay AID504795 (Drosophila RNAi Screening Center, 2011)
Only reagents picked out of a larger screen are listed. 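Every listed dsRNA shows some phenotype; how reagents were selected for listing is not stated.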 Names joined by + are all predicted targets of the reagent.

- Screen: 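Fly genes whose loss alters neurite growth or neural cell form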 (primary screen)
- System: primary Drosophila neurons and glia
- Knock-down reagent: long dsRNA against Drosophila genes, 250 ng dsRNA per well
- Duration: one week
- Measured: 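Descriptive morphology terms assigned by visual inspection of live automated images of GFP-marked cells, taken one week after adding 250 ng dsRNA per well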

no.	target	dsRNA	phenotype seen, replicate 1	phenotype seen, replicate 2
1	RpS18 (GeneID 37292)	DRSC07540	beaded; swollen axons	
2	Gld2 (GeneID 42602)	DRSC15863	too many neurite branches	
3	Nlg4 (GeneID 42402)	DRSC15701	sheet-like cell extensions	
4	wupA (GeneID 32794)	DRSC20385	sheet-like cell extensions	
5	Tsp42Eo (GeneID 35625)	DRSC06184	too many neurite branches	
6	lbe (GeneID 42542)	DRSC16985	axon bundles split apart	
7	CG1463 (GeneID 32211)	DRSC19603	abnormal cell clusters	
8	Hcf (GeneID 43788)	DRSC17143	axon bundles split apart	
9	MstProx + Mst84Da	DRSC12597	axon bundles split apart	
10	Dic4 (GeneID 40039)	DRSC10317	reduced axon outgrowth	
11	Rab3-GEF (GeneID 32442)	DRSC19956	axon bundles split apart	
12	CG34367 (GeneID 5740879)	DRSC02238	cell fragments present	
13	CG2841 (GeneID 44529)	DRSC22106	axon bundles split apart	
14	CG11018 (GeneID 37259)	DRSC06024	axon bundles split apart	
15	Obp83cd (GeneID 40746)	DRSC12267	axon bundles split apart	
16	Mitf (GeneID 3885647)	DRSC17212	abnormal cell clusters	
17	Sox14 (GeneID 37822)	DRSC04656	too many neurite branches	
18	ACXC (GeneID 34689)	DRSC00846	too many neurite branches	
19	Irk2 (GeneID 42770)	DRSC15569	cell fragments present	
20	jigr1 (GeneID 43093)	DRSC13724	sheet-like cell extensions	
21	Tlk (GeneID 318206)	DRSC17835	sheet-like cell extensions	
22	ringer (GeneID 39813)	DRSC10455	abnormal cell clusters	
23	Drsl5 (GeneID 38409)	DRSC08159	sheet-like cell extensions	
24	Ddr (GeneID 3346209)	DRSC03230	abnormal cell clusters	
25	Ddr (GeneID 3346209)	DRSC22818	axon bundles split apart	
26	CG32833 (GeneID 37650)	DRSC04596	abnormal cell clusters	
27	CG14185 (GeneID 40197)	DRSC10184	reduced axon outgrowth	
28	Glut1 (GeneID 38109)	DRSC08662	axon bundles split apart	
29	Dscam2 (GeneID 38788)	DRSC08869	abnormal cell clusters	
30	CG17575 (GeneID 36414)	DRSC06682	axon bundles split apart	
31	Mocs1 (GeneID 39238)	DRSC11225	cell fragments present	
32	CG11638 (GeneID 31050)	DRSC18640	sheet-like cell extensions	
33	ND-B15 (GeneID 36640)	DRSC06199	sheet-like cell extensions	
34	Nprl2 (GeneID 32677)	DRSC20153	too many neurite branches	
35	CG13907 (GeneID 38104)	DRSC08377	axon bundles split apart	
36	dysc (GeneID 39533)	DRSC10273	abnormal cell clusters	reduced axon outgrowth
37	dysc (GeneID 39533)	DRSC11040	fewer cells	
38	CG12511 (GeneID 33797)	DRSC02171	cell fragments present	
39	S-Lap8 (GeneID 36844)	DRSC06870	axon bundles split apart	
40	CG13239 (GeneID 40503)	DRSC11694	too many neurite branches	
41	MESK2 + CG10494	DRSC04259	beaded; swollen axons	too many neurite branches
42	tn (GeneID 37190)	DRSC05768	sheet-like cell extensions	
43	RpL7A (GeneID 31588)	DRSC18709	abnormal cell clusters	
44	EbpIII (GeneID 49821)	DRSC04638	axon bundles split apart	
45	CG13920 (GeneID 38203)	DRSC08389	too many neurite branches	
46	CG2694 (GeneID 31260)	DRSC18470	axon bundles split apart	
47	OtopLc (GeneID 7354434)	DRSC18083	axon bundles split apart	
48	CG13084 (GeneID 35229)	DRSC02188	abnormal cell clusters	
49	MFS10 (GeneID 32263)	DRSC19888	sheet-like cell extensions	
50	Patsas (GeneID 34634)	DRSC02975	cell fragments present	
51	CG13247 (GeneID 40247)	DRSC11695	reduced axon outgrowth	
52	BEAF-32 + CG42254 (retired record)	DRSC05503	axon bundles split apart	
53	gw (GeneID 43808)	DRSC17135	axon bundles split apart	
54	Lac (GeneID 36363)	DRSC07452	axon bundles split apart	
55	Rrp45 (GeneID 32665)	DRSC20198	too many neurite branches	
56	CG7963 (GeneID 41001)	DRSC16355	cell fragments present	
57	CG6610 (GeneID 38693)	DRSC10674	axon bundles split apart	
58	CG43317 (GeneID 41916)	DRSC15000	abnormal cell clusters	
59	NaPi-III (GeneID 39255)	DRSC10893	fewer cells	
60	NaPi-III (GeneID 39255)	DRSC10894	fewer cells	fewer cells
61	Inx2 (GeneID 31646)	DRSC18783	too many neurite branches	
62	CG32206 (GeneID 40105)	DRSC10094	axon bundles split apart	
63	CG32206 (GeneID 40105)	DRSC10095	sheet-like cell extensions	
64	CG32206 (GeneID 40105)	DRSC10096	fewer cells	
65	Prosbeta4 (GeneID 34999)	DRSC02603	sheet-like cell extensions	
66	RpL24-like (GeneID 41372)	DRSC16111	abnormal cell clusters	
67	CG17349 (GeneID 35209)	DRSC02610	too many neurite branches	
68	BomS3 (GeneID 50209)	DRSC21458	abnormal cell clusters	
69	CG14306 (retired record) (GeneID 42231)	DRSC14785	sheet-like cell extensions	
70	ftz-f1 (GeneID 40045)	DRSC11347	abnormal cell clusters	
71	CG34054 (GeneID 3885601)	DRSC05277	abnormal cell clusters	
72	D (GeneID 39570)	DRSC11132	axon bundles split apart	
73	CG33278 (GeneID 2768946)	DRSC10336	fewer cells	
74	crn (GeneID 31208)	DRSC18185	cell fragments present	
75	crn (GeneID 31208)	DRSC18755	axon bundles split apart	
76	CG9649 (GeneID 41727)	DRSC16534	too many neurite branches	
77	Tengl4 (GeneID 41321)	DRSC15620	axon bundles split apart	
78	CG31802 (GeneID 318949)	DRSC02459	abnormal cell clusters	
79	CG4829 (GeneID 32672)	DRSC19920	abnormal cell clusters	
80	RunxB (GeneID 33051)	DRSC20526	reduced axon outgrowth	
81	CG6962 (GeneID 41436)	DRSC16153	too many neurite branches	
82	CG31463 (GeneID 40978)	DRSC14346	beaded; swollen axons	axon bundles split apart
83	hbt (GeneID 34738)	DRSC02503	too many neurite branches	
84	Zasp67 (GeneID 39148)	DRSC10169	beaded; swollen axons	
85	CG33964 + CG13175	DRSC06300	abnormal cell clusters	
86	CG7215 + Prx5	DRSC16214	too many neurite branches	
87	CG14535 (GeneID 34073)	DRSC02393	too many neurite branches	

Next part, starting with the last 4 of the part before.
no.	target	dsRNA	phenotype seen, replicate 1	phenotype seen, replicate 2
84	Zasp67 (GeneID 39148)	DRSC10169	beaded; swollen axons	
85	CG33964 + CG13175	DRSC06300	abnormal cell clusters	
86	CG7215 + Prx5	DRSC16214	too many neurite branches	
87	CG14535 (GeneID 34073)	DRSC02393	too many neurite branches	
88	CG13332 (GeneID 36504)	DRSC06367	abnormal cell clusters	
89	Cyp6a22 (GeneID 49847)	DRSC07382	abnormal cell clusters	
90	eIF3e (GeneID 39877)	DRSC11199	cell fragments present	beaded; swollen axons
91	betaTub60D (GeneID 37888)	DRSC04673	axon bundles split apart	
92	Wnk (GeneID 40391)	DRSC11813	abnormal cell clusters	
93	kl-5 (retired record) (GeneID 3355175)	DRSC21161	abnormal cell clusters	
94	RpL35A (GeneID 40654)	DRSC12302	too many neurite branches	
95	Dop1R1 (GeneID 41726)	DRSC16652	axon bundles split apart	
96	RpS27A (GeneID 34420)	DRSC03421	cell fragments present	
97	l(2)05287 (GeneID 35374)	DRSC02152	axon bundles split apart	
98	CG5180 (GeneID 192508)	DRSC15731	sheet-like cell extensions	
99	CG32532 (GeneID 32943)	DRSC21370	reduced axon outgrowth	
100	CG34310 (GeneID 5740536)	DRSC00943	reduced axon outgrowth	
101	CG8860 (GeneID 36310)	DRSC07291	abnormal cell clusters	
102	CG32137 (GeneID 39537)	DRSC10271	cell fragments present	fewer cells
103	CG31534 (retired record) (GeneID 40585)	DRSC12289	fewer cells	
104	RpS16 (GeneID 37580)	DRSC04442	axon bundles split apart	
105	CG9973 (retired record) (GeneID 38349)	DRSC08646	axon bundles split apart	
106	cic (GeneID 53560)	DRSC16918	sheet-like cell extensions	
107	alphaSnap (GeneID 40233)	DRSC11285	reduced axon outgrowth	
108	ebi (GeneID 33212)	DRSC00816	axon bundles split apart	
109	tgy (GeneID 32896)	DRSC20045	reduced axon outgrowth	
110	sel (GeneID 36046)	DRSC06232	axon bundles split apart	
111	Vha68-1 (GeneID 45668)	DRSC03470	abnormal cell clusters	
112	gammaCOP (GeneID 43717)	DRSC16955	axon bundles split apart	
113	CG8136 (GeneID 41037)	DRSC16385	reduced axon outgrowth	
114	IP3K2 (GeneID 32285)	DRSC19747	abnormal cell clusters	
115	shrb (GeneID 35933)	DRSC07061	cell fragments present	
116	eag (GeneID 32428)	DRSC20328	axon bundles split apart	
117	mRpL52 (GeneID 35711)	DRSC06585	abnormal cell clusters	
118	CG12862 (GeneID 36625)	DRSC06202	fewer cells	
119	Mical (GeneID 41225)	DRSC14351	abnormal cell clusters	
120	CG34196 (GeneID 5740437)	DRSC05704	axon bundles split apart	
121	Prm (GeneID 39002)	DRSC11255	abnormal cell clusters	
122	Samuel (GeneID 34530)	DRSC02401	abnormal cell clusters	
123	Samuel (GeneID 34530)	DRSC21731	too many neurite branches	cell fragments present
124	CG4393 (GeneID 42764)	DRSC15573	too many neurite branches	
125	Ank2 (GeneID 38863)	DRSC08894	beaded; swollen axons	
126	CG43897 (GeneID 39153)	DRSC10965	abnormal cell clusters	sheet-like cell extensions
127	CG7889 (GeneID 32916)	DRSC20066	too many neurite branches	
128	CG40498 (GeneID 3354890)	DRSC07786	axon bundles split apart	
129	fd59A (GeneID 37631)	DRSC04685	too many neurite branches	
130	Ercc1 (GeneID 36654)	DRSC07424	too many neurite branches	
131	Ir51a (GeneID 3771848)	DRSC06256	fewer cells	
132	Cda4 (GeneID 33144)	DRSC20641	too many neurite branches	
133	Cyp12a4 (GeneID 42294)	DRSC16620	sheet-like cell extensions	
134	CG17154 (GeneID 39373)	DRSC10253	abnormal cell clusters	
135	CG40341 (retired record) (GeneID 3885621)	DRSC01767	reduced axon outgrowth	
136	CG5863 (GeneID 42096)	DRSC15898	beaded; swollen axons	
137	Prosalpha4 (GeneID 32584)	DRSC20271	abnormal cell clusters	
138	CG14762 (GeneID 35768)	DRSC05073	axon bundles split apart	
